These are yes or no findings as the source states them, for the method shown. Binding seen in cells or lysates may run through a third protein. A yes stands for co-enrichment or nearness to the bait. Other partners may have been found. Sequences can lack the tags named with a protein.
T1: GFP-LGN (UniProt P81274)
T1 sequence: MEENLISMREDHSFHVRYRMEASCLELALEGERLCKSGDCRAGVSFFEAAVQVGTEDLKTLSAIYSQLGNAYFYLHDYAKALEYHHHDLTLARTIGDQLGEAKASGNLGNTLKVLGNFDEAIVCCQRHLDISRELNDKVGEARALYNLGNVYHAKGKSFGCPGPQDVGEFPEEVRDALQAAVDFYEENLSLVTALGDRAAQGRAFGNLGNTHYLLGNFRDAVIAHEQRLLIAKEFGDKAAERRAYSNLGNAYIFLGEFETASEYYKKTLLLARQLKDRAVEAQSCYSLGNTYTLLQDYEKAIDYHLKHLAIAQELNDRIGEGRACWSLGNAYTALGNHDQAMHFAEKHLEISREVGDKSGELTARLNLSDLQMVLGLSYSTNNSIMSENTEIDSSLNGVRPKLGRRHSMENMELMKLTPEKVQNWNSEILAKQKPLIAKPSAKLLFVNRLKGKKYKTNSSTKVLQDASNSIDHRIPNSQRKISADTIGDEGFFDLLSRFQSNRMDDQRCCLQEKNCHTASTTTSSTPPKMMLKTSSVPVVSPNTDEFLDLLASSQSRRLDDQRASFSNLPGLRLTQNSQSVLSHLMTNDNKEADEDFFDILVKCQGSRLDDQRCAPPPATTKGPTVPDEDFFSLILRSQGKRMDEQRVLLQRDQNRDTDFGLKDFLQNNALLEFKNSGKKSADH

Protein sequences, listed by entry. Tags and fused reporters are not part of them.
UniProt P60228: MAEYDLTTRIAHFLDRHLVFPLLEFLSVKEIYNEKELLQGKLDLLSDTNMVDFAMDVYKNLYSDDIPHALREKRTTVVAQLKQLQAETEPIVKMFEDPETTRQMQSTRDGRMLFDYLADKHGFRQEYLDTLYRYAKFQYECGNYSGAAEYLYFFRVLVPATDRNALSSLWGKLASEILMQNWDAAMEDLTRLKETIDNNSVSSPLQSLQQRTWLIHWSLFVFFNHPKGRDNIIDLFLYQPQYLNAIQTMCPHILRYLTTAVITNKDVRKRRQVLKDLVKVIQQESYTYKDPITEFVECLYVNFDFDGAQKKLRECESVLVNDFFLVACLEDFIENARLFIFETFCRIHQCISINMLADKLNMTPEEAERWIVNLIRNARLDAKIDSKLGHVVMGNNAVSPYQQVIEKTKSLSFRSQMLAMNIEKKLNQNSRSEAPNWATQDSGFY
UniProt Q8TEW0: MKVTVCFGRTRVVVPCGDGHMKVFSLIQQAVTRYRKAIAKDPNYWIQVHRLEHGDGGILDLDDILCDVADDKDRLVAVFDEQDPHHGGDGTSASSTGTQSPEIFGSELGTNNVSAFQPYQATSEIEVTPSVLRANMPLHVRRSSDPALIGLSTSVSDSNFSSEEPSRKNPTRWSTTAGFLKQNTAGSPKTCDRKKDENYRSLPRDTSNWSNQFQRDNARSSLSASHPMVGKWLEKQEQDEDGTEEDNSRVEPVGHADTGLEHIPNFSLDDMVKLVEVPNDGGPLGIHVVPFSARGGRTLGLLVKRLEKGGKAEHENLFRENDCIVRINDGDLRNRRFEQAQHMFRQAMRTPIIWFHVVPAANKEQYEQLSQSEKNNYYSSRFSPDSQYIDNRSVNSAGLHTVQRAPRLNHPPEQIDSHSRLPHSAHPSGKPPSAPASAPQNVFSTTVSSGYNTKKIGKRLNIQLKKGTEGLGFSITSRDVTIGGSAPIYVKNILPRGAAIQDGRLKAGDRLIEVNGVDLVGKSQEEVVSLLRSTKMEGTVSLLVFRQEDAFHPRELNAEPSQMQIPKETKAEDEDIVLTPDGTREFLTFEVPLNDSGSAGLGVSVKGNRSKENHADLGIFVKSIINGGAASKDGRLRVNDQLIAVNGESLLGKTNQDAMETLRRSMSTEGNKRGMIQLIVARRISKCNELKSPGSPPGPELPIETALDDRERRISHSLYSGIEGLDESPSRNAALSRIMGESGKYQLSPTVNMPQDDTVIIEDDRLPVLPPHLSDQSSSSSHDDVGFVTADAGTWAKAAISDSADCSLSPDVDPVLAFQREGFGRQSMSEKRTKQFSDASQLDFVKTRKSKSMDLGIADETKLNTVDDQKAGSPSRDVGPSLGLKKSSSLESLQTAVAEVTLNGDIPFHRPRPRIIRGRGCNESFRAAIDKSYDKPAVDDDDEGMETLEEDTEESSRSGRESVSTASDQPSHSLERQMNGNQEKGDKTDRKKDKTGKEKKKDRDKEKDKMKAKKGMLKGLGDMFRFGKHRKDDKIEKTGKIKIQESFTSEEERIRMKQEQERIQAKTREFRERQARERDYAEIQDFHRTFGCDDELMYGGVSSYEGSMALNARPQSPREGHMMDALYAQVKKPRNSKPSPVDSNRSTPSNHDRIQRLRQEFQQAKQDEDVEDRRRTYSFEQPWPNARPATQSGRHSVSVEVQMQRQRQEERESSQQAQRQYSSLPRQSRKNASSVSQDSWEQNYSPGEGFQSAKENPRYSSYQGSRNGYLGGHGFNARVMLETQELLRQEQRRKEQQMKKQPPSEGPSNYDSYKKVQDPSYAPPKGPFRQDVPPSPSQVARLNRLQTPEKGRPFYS
UniProt P53350: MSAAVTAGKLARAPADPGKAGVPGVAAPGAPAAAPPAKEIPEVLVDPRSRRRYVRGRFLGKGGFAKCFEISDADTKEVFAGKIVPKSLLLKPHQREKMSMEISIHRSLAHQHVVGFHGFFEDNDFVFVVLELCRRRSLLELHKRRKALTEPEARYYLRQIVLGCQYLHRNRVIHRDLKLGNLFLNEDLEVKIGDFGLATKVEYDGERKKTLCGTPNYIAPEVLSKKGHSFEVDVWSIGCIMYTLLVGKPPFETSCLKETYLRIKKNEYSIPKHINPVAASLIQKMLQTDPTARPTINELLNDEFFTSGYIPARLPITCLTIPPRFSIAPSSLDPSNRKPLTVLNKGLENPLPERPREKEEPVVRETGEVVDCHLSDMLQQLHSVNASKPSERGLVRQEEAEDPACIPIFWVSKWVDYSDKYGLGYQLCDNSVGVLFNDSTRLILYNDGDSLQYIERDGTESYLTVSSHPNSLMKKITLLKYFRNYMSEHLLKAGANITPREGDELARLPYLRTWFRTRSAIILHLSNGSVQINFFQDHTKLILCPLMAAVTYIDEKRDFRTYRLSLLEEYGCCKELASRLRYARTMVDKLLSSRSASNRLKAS
UniProt P23258: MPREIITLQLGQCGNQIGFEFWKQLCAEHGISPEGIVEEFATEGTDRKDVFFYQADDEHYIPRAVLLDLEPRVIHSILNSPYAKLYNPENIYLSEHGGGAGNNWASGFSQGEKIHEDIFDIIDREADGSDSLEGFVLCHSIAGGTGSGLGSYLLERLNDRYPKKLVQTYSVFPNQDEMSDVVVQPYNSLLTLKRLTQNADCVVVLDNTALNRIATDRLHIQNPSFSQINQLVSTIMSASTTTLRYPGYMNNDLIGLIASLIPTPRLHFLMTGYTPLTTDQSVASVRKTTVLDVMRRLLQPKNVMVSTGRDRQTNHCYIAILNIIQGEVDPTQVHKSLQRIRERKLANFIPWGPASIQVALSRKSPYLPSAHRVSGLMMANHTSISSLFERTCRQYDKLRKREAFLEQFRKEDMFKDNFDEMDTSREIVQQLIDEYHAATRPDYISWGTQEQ
UniProt Q7Z460: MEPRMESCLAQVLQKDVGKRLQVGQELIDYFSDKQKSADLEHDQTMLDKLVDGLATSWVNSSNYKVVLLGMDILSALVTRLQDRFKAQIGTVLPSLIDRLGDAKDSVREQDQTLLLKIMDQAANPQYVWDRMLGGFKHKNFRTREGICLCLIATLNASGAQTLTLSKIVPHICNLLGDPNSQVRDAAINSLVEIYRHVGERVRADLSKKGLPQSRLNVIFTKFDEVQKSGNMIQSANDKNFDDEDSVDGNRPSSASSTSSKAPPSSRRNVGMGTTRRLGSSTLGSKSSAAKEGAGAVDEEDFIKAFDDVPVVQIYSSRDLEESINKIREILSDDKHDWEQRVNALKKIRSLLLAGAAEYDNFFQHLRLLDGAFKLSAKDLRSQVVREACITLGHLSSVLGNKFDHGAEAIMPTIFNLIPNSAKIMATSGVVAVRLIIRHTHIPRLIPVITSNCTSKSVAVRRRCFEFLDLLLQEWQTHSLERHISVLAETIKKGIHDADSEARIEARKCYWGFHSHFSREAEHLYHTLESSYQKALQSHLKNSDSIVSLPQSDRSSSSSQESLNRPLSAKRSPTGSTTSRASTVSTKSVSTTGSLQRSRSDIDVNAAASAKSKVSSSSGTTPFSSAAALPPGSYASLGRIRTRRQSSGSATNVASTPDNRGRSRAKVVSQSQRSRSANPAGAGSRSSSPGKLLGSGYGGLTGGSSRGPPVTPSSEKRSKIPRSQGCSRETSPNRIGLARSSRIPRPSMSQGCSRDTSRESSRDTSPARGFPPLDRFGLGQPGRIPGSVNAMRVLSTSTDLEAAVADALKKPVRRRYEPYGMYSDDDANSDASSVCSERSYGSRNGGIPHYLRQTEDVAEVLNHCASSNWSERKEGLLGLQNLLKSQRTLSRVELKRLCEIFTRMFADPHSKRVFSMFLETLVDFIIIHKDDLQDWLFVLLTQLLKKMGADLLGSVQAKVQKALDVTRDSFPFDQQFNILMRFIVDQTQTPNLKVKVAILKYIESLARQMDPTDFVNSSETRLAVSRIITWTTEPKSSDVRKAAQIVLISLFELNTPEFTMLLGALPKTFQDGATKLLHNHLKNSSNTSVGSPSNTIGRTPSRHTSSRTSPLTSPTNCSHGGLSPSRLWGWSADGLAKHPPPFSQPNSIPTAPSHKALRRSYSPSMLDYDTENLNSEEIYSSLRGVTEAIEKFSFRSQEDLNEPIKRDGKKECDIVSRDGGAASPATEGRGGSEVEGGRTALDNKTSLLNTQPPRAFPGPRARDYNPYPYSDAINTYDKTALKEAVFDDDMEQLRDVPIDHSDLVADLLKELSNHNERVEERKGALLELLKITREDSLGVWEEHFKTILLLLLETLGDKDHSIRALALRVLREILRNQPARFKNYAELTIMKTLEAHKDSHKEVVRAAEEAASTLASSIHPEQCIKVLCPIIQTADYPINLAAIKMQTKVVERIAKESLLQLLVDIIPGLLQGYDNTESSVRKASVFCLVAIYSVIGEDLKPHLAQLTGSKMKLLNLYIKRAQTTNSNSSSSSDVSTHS
UniProt P14635: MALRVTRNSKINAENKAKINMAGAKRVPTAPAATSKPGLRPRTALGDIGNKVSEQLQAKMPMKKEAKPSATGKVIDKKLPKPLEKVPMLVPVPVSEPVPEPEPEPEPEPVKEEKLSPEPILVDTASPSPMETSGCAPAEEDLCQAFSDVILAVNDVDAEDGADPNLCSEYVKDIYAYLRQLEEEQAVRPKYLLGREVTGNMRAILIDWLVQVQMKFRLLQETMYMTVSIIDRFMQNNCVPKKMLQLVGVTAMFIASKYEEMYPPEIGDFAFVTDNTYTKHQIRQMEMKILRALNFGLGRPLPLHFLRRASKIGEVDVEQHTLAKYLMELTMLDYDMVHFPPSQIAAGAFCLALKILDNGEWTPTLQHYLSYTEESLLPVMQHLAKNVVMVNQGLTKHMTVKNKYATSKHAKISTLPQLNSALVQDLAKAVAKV


Target: T1, GFP-LGN
Assay: affinity purification with mass spectrometry

Molecule | binding
Dynein (DYNC1H1) (from UniProt Q14204 1-4646) | binds
EIF3E (from UniProt P60228 1-445) | binds
PAR3 (from UniProt Q8TEW0 1-1356) | binds
PLK1 (from UniProt P53350 1-603) | binds
ψ-tubulin (TUBG1) (from UniProt P23258 1-451) | binds
NUMB (protein, UniProt P49757 1-651) MNKLRQSFRRKKDVYVPEASRPHQWQTDEEGVRTGKCSFPVKYLGHVEVDESRGMHICEDAVKRLKAERKFFKGFFGKTGKKAVKAVLWVSADGLRVVDEKTKDLIVDQTIEKVSFCAPDRNFDRAFSYICRDGTTRRWICHCFMAVKDTGERLSHAVGCAFAACLERKQKREKECGVTATFDASRTTFTREGSFRVTTATEQAEREEIMKQMQDAKKAETDKIVVGSSVAPGNTAPSPSSPTSPTSDATTSLEMNNPHAIPRRHAPIEQLARQGSFRGFPALSQKMSPFKRQLSLRINELPSTMQRKTDFPIKNAVPEVEGEAESISSLCSQITNAFSTPEDPFSSAPMTKPVTVVAPQSPTFQANGTDSAFHVLAKPAHTALAPVAMPVRETNPWAHAPDAANKEIAATCSGTEWGQSSGAASPGLFQAGHRRTPSEADRWLEEVSKSVRAQQPQASAAPLQPVLQPPPPTAISQPASPFQGNAFLTSQPVPVGVVPALQPAFVPAQSYPVANGMPYPAPNVPVVGITPSQMVANVFGTAGHPQAAHPHQSPSLVRQQTFPHYEASSATTSPFFKPPAQHLNGSAAFNGVDDGRLASADRHTEVPTGTCPVDPFEAQWAALENKSKQRTNPSPTNPFSSDLQKTFEIEL | binds
Serum Amyloid A-1 protein (SAA1) (protein, UniProt P0DJI8 19-122) RSFFSFLGEAFDGARDMWRAYSDMREANYIGSDKYFHARGNYDAAKRGPGGAWAAEVITDARENIQRFFGHGAEDSLADQAANEWGRSGKDPNHFRPAGLPEKY | binds
S100A11 (S100 Ca^2+-binding protein A11) (protein, UniProt P31949 1-105) MAKISSPTETERCIESLIAVFQKYAGKDGYNYTLSKTEFLSFMNTELAAFTKNQKDPGVLDRMMKKLDTNSDGQLDFSEFLNLIGGLAMACHDSFLKAVPSQKRT | binds

More lines, now with the values ahead:

binding | Molecule
binds | CLASP1 (from UniProt Q7Z460 1-1538)
binds | Cyclin B1 (CCNB1) (from UniProt P14635 1-433)
binds | nuclear mitotic apparatus protein (NuMA) (from UniProt Q14980 1-2115)
binds | INSC (protein, UniProt Q1MX18 1-579) MRRPPGNGEAASEGPGGWGLWGVQESRRLCCAGHDRCKQALLQIGINMMALPGGRHLDSVTLPGQRLHLMQVDSVQRWMEDLKLMTECECMCVLQAKPISLEEDAQGDLILAGGPGPGDPLQLLLKRGWVISTELRRIGQKLAQDRWARVHSMSVRLTCHARSMVSEYSAVSRNSLKEMGEIEKLLMEKCSELSAVTERCLQVENEHVLKSMKACVSETLSMLGQHFGQLLELALTREVQALVRKIDASDNIYTTESTTGNLFSLTQEGAPLCRIIAKEGGVVALFKVCRQDSFRCLYPQALRTLASICCVEEGVHQLEKVDGVLCLADILTDNSHSEATRAEAAAVVAQVTSPHLPVTQHLSSFLESMEEIVTALVKLCQEASSGEVFLLASAALANITFFDTMACEMLLQLNAIRVLLEACSDKQRVDTPYTRDQIVTILANMSVLEQCASDIIQENGVQLIMGMLSEKPRSGTPAEVAACERVQQKAAVTLARLSRDPDVAREAVRLSCMSRLIELCRSPSERNSSDAVLVACLAALRRLAGVCPEGLQDSDFQQLVQPRLVDSFLLCSNMEESFV
binds | Annexin A1 (ANXA1) (protein, UniProt P04083 1-346) MAMVSEFLKQAWFIENEEQEYVQTVKSSKGGPGSAVSPYPTFNPSSDVAALHKAIMVKGVDEATIIDILTKRNNAQRQQIKAAYLQETGKPLDETLKKALTGHLEEVVLALLKTPAQFDADELRAAMKGLGTDEDTLIEILASRTNKEIRDINRVYREELKRDLAKDITSDTSGDFRNALLSLAKGDRSEDFGVNEDLADSDARALYEAGERRKGTDVNVFNTILTTRSYPQLRRVFQKYTKYSKHDMNKVLDLELKGDIEKCLTAIVKCATSKPAFFAEKLHQAMKGVGTRHKALIRIMVSRSEIDMNDIKAFYQKMYGISLCQAILDETKGDYEKILVALCGGN
binds | HAUS6 (protein, UniProt Q7Z4H7 1-955) MSSASVTAFEKEHLWMYLQALGFEPGPATIACGKIVSHTHLGVNMFDKLNRDAFHIISYFLFQVLDQSLTKEVFKFCWPPFDQKSDTEFRKHCCEWIKRISGECGSSFPQVVGSLFLSPGGPKFIHLMYHFARFVAMKYIKSNSKNSSHHFVETFNIKPQDLHKCIARCHFARSRFLQILQRQDCVTQKYQENAQLSVKQVRNLRSECIGLENQIKKMEPYDDHSNMEEKIQKVRSLWASVNETLMFLEKEREVVSSVLSLVNQYALDGTNVAINIPRLLLDKIEKQMFQLHIGNVYEAGKLNLLTVIQLLNEVLKVMKYERCQADQARLTVDLHYLEKETKFQKERLSDLKHMRYRIKDDLTTIRHSVVEKQGEWHKKWKEFLGLSPFSLIKGWTPSVDLLPPMSPLSFDPASEEVYAKSILCQYPASLPDAHKQHNQENGCRGDSDTLGALHDLANSPASFLSQSVSSSDRNSVTVLEKDTKMGTPKEKNEAISKKIPEFEVENSPLSDVAKNTESSAFGGSLPAKKSDPFQKEQDHLVEEVARAVLSDSPQLSEGKEIKLEELIDSLGSNPFLTRNQIPRTPENLITEIRSSWRKAIEMEENRTKEPIQMDAEHREVLPESLPVLHNQREFSMADFLLETTVSDFGQSHLTEEKVISDCECVPQKHVLTSHIDEPPTQNQSDLLNKKVICKQDLECLAFTKLSETSRMETFSPAVGNRIDVMGGSEEEFMKILDHLEVSCNKPSTNKTMLWNSFQISSGISSKSFKDNDFGILHETLPEEVGHLSFNSSSSSEANFKLEPNSPMHGGTLLEDVVGGRQTTPESDFNLQALRSRYEALKKSLSKKREESYLSNSQTPERHKPELSPTPQNVQTDDTLNFLDTCDLHTEHIKPSLRTSIGERKRSLSPLIKFSPVEQRLRTTIACSLGELPNLKEEDILNKSLDAKEPPSDLTR
